According to article PMC9659096:
Results are given in words; binding and its absence hold for the method and conditions named. In cells and extracts the contact can be indirect. Some entries that bind do so weakly or less than the wild type. Sequences can lack the tags named with a protein.

T1: sodium iodide symporter (NIS) with an extracellular triple HA tag (UniProt Q92911)
T1 sequence: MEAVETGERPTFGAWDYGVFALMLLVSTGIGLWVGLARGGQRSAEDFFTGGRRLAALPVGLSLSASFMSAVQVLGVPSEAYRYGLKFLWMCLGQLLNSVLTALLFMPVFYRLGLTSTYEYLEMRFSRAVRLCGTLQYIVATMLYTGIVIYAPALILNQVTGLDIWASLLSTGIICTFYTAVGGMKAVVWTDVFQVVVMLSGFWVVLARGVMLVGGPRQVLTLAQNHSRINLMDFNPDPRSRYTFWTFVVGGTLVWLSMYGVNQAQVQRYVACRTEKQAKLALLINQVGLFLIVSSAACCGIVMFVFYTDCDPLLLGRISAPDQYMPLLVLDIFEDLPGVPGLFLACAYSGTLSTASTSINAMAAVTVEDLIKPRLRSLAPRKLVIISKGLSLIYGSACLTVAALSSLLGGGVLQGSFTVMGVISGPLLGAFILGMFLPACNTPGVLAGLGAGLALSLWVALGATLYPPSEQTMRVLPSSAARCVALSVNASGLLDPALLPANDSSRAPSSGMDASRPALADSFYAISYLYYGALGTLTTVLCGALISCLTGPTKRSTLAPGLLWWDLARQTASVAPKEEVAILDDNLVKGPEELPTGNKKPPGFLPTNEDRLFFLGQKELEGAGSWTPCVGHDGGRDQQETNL


Target: T1, sodium iodide symporter (NIS) with an extracellular triple HA tag
Assay: co-IP; cell surface HA-NIS of HA-NIS-TPC1 cells in ice-cold PBS++ captured with rabbit anti-HA (4 ug/mL) coupled to Dynabeads G-protein beads; rabbit anti-goat IgG as control; partners detected by Western blot

| binding | Binder |
| --- | --- |
| no binding | VAV2 exchange factor (protein, UniProt P52735 1-878) MEQWRQCGRWLIDCKVLPPNHRVVWPSAVVFDLAQALRDGVLLCQLLHNLSPGSIDLKDINFRPQMSQFLCLKNIRTFLKVCHDKFGLRNSELFDPFDLFDVRDFGKVISAVSRLSLHSIAQNKGIRPFPSEETTENDDDVYRSLEELADEHDLGEDIYDCVPCEDGGDDIYEDIIKVEVQQPMIRYMQKMGMTEDDKRNCCLLEIQETEAKYYRTLEDIEKNYMSPLRLVLSPADMAAVFINLEDLIKVHHSFLRAIDVSVMVGGSTLAKVFLDFKERLLIYGEYCSHMEHAQNTLNQLLASREDFRQKVEECTLKVQDGKFKLQDLLVVPMQRVLKYHLLLKELLSHSAERPERQQLKEALEAMQDLAMYINEVKRDKETLRKISEFQSSIENLQVKLEEFGRPKIDGELKVRSIVNHTKQDRYLFLFDKVVIVCKRKGYSYELKEIIELLFHKMTDDPMNNKDVKKSHGKMWSYGFYLIHLQGKQGFQFFCKTEDMKRKWMEQFEMAMSNIKPDKANANHHSFQMYTFDKTTNCKACKMFLRGTFYQGYMCTKCGVGAHKECLEVIPPCKFTSPADLDASGAGPGPKMVAMQNYHGNPAPPGKPVLTFQTGDVLELLRGDPESPWWEGRLVQTRKSGYFPSSSVKPCPVDGRPPISRPPSREIDYTAYPWFAGNMERQQTDNLLKSHASGTYLIRERPAEAERFAISIKFNDEVKHIKVVEKDNWIHITEAKKFDSLLELVEYYQCHSLKESFKQLDTTLKYPYKSRERSASRASSRSPASCASYNFSFLSPQGLSFASQGPSAPFWSVFTPRVIGTAVARYNFAARDMRELSLREGDVVRIYSRIGGDQGWWKGETNGRIGWFPSTYVEEEGIQ |
| binds | P120-catenin (CTNND1) (protein, UniProt O60716 1-968) MDDSEVESTASILASVKEQEAQFEKLTRALEEERRHVSAQLERVRVSPQDANPLMANGTLTRRHQNGRFVGDADLERQKFSDLKLNGPQDHSHLLYSTIPRMQEPGQIVETYTEEDPEGAMSVVSVETSDDGTTRRTETTVKKVVKTVTTRTVQPVAMGPDGLPVDASSVSNNYIQTLGRDFRKNGNGGPGPYVGQAGTATLPRNFHYPPDGYSRHYEDGYPGGSDNYGSLSRVTRIEERYRPSMEGYRAPSRQDVYGPQPQVRVGGSSVDLHRFHPEPYGLEDDQRSMGYDDLDYGMMSDYGTARRTGTPSDPRRRLRSYEDMIGEEVPSDQYYWAPLAQHERGSLASLDSLRKGGPPPPNWRQPELPEVIAMLGFRLDAVKSNAAAYLQHLCYRNDKVKTDVRKLKGIPVLVGLLDHPKKEVHLGACGALKNISFGRDQDNKIAIKNCDGVPALVRLLRKARDMDLTEVITGTLWNLSSHDSIKMEIVDHALHALTDEVIIPHSGWEREPNEDCKPRHIEWESVLTNTAGCLRNVSSERSEARRKLRECDGLVDALIFIVQAEIGQKDSDSKLVENCVCLLRNLSYQVHREIPQAERYQEAAPNVANNTGPHAASCFGAKKGKDEWFSRGKKPIEDPANDTVDFPKRTSPARGYELLFQPEVVRIYISLLKESKTPAILEASAGAIQNLCAGRWTYGRYIRSALRQEKALSAIADLLTNEHERVVKAASGALRNLAVDARNKELIGKHAIPNLVKNLPGGQQNSSWNFSEDTVISILNTINEVIAENLEAAKKLRETQGIEKLVLINKSGNRSEKEVRAAALVLQTIWGYKELRKPLEKEGWKKSDFQVNLNNASRSQSSHSYDDSTLPLIDRNQKSDKKPDREEIQMSNMGSNTKSLDNNYSTPNERGDHNRTLDRSGDLGDMEPLKGTTPLMQDEGQESLEEELDVLVLDDEGGQVSYPSMQKI |
